Laboratory results from the supplement of paper PMC7125110.
± gives the standard error. Many of these values have a large error.

B1: glmS ribozyme (parent)
chain: AUAAAAGCGCCAGAACUACAGAAAUGUAGUUGACGAGGAGGAGGUUUAUCGAAUUUUCGGCGGAUGCCUCCAAA

Variants of: B1
Assay: self-cleavage kobs at 40 uM GlcN6P; higher = faster cleavage; RNA array
Conditions: with glucosamine-6-phosphate
Outline: (§1)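 Weighted Michaelis–Menten fits across concentrations supplied kcat and KM, based on kobs from one- or two-exponential decay fits to normalised per-tile medians. The data came from barcoded ribozyme variants transcribed in situ by E. coli RNA polymerase on sequenced MiSeq chips and tracked at 37 °C by a hybridised Cy3 probe. Glucosamine-6-phosphate (40 μM to 10 mM) in HEPES/KCl/Mg(OAc)2 buffer was flowed in.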

| Variant | self-cleavage kobs at 40 uM GlcN6P [s⁻¹] |
| --- | --- |
| AUAAAAGCGCCAGAACUACAGAAAUGUAGUUGACGAGGAGGAGGUUUAUGGAAUUUCCGGCGGAUGCCUCCAAA [C50G U57C] | 1.76e-05 ± 1.7e-05 |
| AUAAAAGCGCCAGAACUACAGAAAUGUAGUUGACGAGGAGGAGGUUUAUUGAAUUUUCGGCGGAUGCCGCCAAA [C50U U69G] | 2.12e-05 ± 1.4e-05 |
| AUAAAAGCGCCAGAACUACAGAAAUGUAGUUGACGAGGAGGAGGUUUAUCGGAGUUUCGGCGGAUGCCUCCAAA [A52G U54G] | 2.78e-05 ± 1.5e-05 |
| AUAAAAGCGCCAGAACUACAGAAAUGUAGUUGACGAGGAGGAGGUUUAUCGAAUUUUUGACGGAUGUAUCCAAA [C58U G60A C67U C68A] | 3.41e-05 ± 2.9e-05 |
| AUAAAAGCGCCAGAACUACAGAAAUGUAGUUGACGAGGAGGAGGUUUAUCGAAUUUUCGGCGGAUGCCUGAAAA [C70G C71A] | 2.39e-05 ± 1.6e-05 |

Variants of: B1
Assay: self-cleavage kobs at 640 uM GlcN6P; higher = faster cleavage; RNA array
Conditions: with glucosamine-6-phosphate
Outline: as §1

| Variant | self-cleavage kobs at 640 uM GlcN6P [s⁻¹] |
| --- | --- |
| AUAAAAGCGCCAGAACUACAGAAAUGUAGUUGACGAGGAGGAGGUUUAUUGAAUUUUCGGCGGAUGCCGCCAAA [C50U U69G] | 2.54e-05 ± 1.7e-05 |
| AUAAUAGCGCCAGAACUACAGAAAUGUAGUUGACGAGGAGGAGGUUUAUCGAAUUUUCGGCGGUUGCCUCCAAA [A5U A64U] | 1.91e-05 ± 1.6e-05 |
| AUAAACGCGCCAGAACUACAGAAAUGUAGUUGACGAGGAGGGGGUUUAUCGAAUUUUCGGCGGAUGCCUCCAAA [A6C A42G] | 2.12e-05 ± 1.6e-05 |
| AUAAACGCGCCAGAACUACAGAAAUGUAGUUGACGAGGAGGAGGUUUAACGAAUUUUCGGCGGAUGCCUCGAAA [A6C U49A C71G] | 4.45e-05 ± 2.7e-05 |
| AUAAAUGCGCCAGAACUACAGAAAUGUAGUUGACGAGGAGGAGGUUUAUCAAAUUUUCGGCGGAUGCCUCAAAA [A6U G51A C71A] | 2.79e-05 ± 2.5e-05 |
| AUAAAAACGCCAGGACUACAGAAAUGUAGUUGACGAGAAGGAGCUUUAUCGGAUUUUCGGCGGAUGGCUCCAAA [G7A A14G G38A G44C A52G C67G] | 4.16e-05 ± 2.9e-05 |
| AUAAAAACGCCAGAACUACAGAAAUGUAGUUGACGAGGAGGAGGUUUAUCGAAUUUUCGGCGGAUGCCACAAAA [G7A U69A C71A] | 4.66e-05 ± 2.8e-05 |
| AUAAAAGGGGCACAACUACAGAAAUGUAGUUGACGAGGAGGAGGUUUAUCGAAUUUUGGGCGGAUGCGUCCAAA [C8G C10G G13C C58G C68G] | 0.00285 ± 0.0016 |
| AUAAAAGUGCCAGAUCUACAGAAAUGUAGUUGACGAGGAGGAGGUGUAUGGAAUUUUCGGCGGAUGCCUCUAAA [C8U A15U U46G C50G C71U] | 1.6e-05 ± 1.6e-05 |
| AUAAAAGCUCGAGAACUACAGAAAUGUAUUUGACGAGGAGGAGGUUUAUCGAAUUUUCGGCGCAUGCCUUCAAA [G9U C11G G29U G63C C70U] | 3.07e-05 ± 2.5e-05 |
| AUAAAAGCGACAGAACUACAGAAAUGUAGUUGACGAGGAGGAUGUUUAUCGAAUUUUCGGCGGAUGCCUCCAAA [C10A G43U] | 0.00365 ± 0.003 |
| AUAAAAGCGGCAGAACUACAGAAAUGUAGUUGACGAGGAGGAGGUUUAUGGAAUAUUCGGCGGAUGCCUCCAAA [C10G C50G U55A] | 7.04e-05 ± 4.7e-05 |
| AUAAAAGCGUCAGAAGUACAGAAAUGUAGUUGACGAGGAGGAGGUUUAUCGAAUUUUCGGCGGAUGCGUCCAAA [C10U C16G C68G] | 3.57e-05 ± 2.7e-05 |
| AUAAAAGCGUCAGAACUACAGAAAUGUAGUUGACGAGGAGGAGGUUUAUCGAAUUUUCGGCGGAUGGCUCCAAA [C10U C67G] | 1.76e-05 ± 1.3e-05 |
| AUAAAAGCGUCAGAACUACAGAAAUGUAGUUAACGAGGAGGAGGUUUAUCGAAUUUUCGGCGGAUGCCUUCAAA [C10U G32A C70U] | 3.51e-05 ± 2.7e-05 |
| AUAAAAGCGCAAGAUCUACAGAAAUGUAGUUGACGAGGAGGAGGUUUAUCGAAUUUUCGGCGGAUGCCUCCAAA [C11A A15U] | 2.34e-05 ± 1.9e-05 |
| AUAAAAGCGCAAGAACUACAGAAAUGUAUUUGACGAGGAGGAGGUUUAUGGAAUUUUCGGCGGAUGCCUCCAAA [C11A G29U C50G] | 0.000351 ± 0.00022 |
| AUAAAAGCGCAAGAACUACAGAAAUGUAGUUGACGAGAAGGAGGUUUAUCGAAUUUUCGGCGGAUGGCUCCAAA [C11A G38A C67G] | 3.42e-05 ± 2e-05 |
| AUAAAAGCGCUAGAACUACAGAAAUGUAGUUGACGAGGAGGAGGUUUGUCGAAUUUUCGGCGGAUGCGUCCAAA [C11U A48G C68G] | 0.00087 ± 0.00047 |
| AUAAAAGCGCCCGUACUACAGAAAUGUAGUUGACGAGGAGGAGGUUUAUCGACUUUUCGGCGGAUGCCUCCAAA [A12C A14U A53C] | 5.48e-05 ± 3.9e-05 |
| AUAAAAGCGCCCGAACUACAGAAAUGUAGUUGACGAGGAGGAAGUUUAUCGAAUUUUCGGCGGAUGCCUCCAAA [A12C G43A] | 2.28e-05 ± 1.2e-05 |
| AUAAAAGCGCCGGAACUACAGAAAUGUAGUUGACGAGGAGGAGGUUUAUCGAUUUUUCGGCGGAUGUCUCCAAA [A12G A53U C67U] | 2.71e-05 ± 1.9e-05 |
| AUAAAAGCGCCUGAACUACAGAAAUGUAGUUGACGAGGAGGAGGUUUAUGGAAUUUUCGGUGGAUGCCUCCAAA [A12U C50G C61U] | 2.88e-05 ± 2.1e-05 |
| AUAAAAGCGCCACAACUACAGAAAUGUAGUUGACGAGGAGGAGGUUUAUCGAUUUUUCGGCGGAUGCCUCCAAA [G13C A53U] | 1.12e-05 ± 1e-05 |
| AUAAAAGCGCCAUAACUACAGAAAUGUAGUUGACGAGGAGGAGGUUUAUUGAAUUUUCGACGGAUGCCUGCAAA [G13U C50U G60A C70G] | 3.59e-05 ± 3.5e-05 |

Copied from the list:
Entry of AUAAAAGCGCAAGAUCUACAGAAAUGUAGUUGACGAGGAGGAGGUUUAUCGAAUUUUCGGCGGAUGCCUCCAAA [C11A A15U] under self-cleavage kobs at 640 uM GlcN6P [s⁻¹]: 2.34e-05 ± 1.9e-05
Entry of AUAAAAGCGUCAGAAGUACAGAAAUGUAGUUGACGAGGAGGAGGUUUAUCGAAUUUUCGGCGGAUGCGUCCAAA [C10U C16G C68G] under self-cleavage kobs at 640 uM GlcN6P [s⁻¹]: 3.57e-05 ± 2.7e-05
Entry of AUAAAAGCGCCAUAACUACAGAAAUGUAGUUGACGAGGAGGAGGUUUAUUGAAUUUUCGACGGAUGCCUGCAAA [G13U C50U G60A C70G] under self-cleavage kobs at 640 uM GlcN6P [s⁻¹]: 3.59e-05 ± 3.5e-05

Variants of: B1
Assay: self-cleavage kobs at 2500 uM GlcN6P; higher = faster cleavage; RNA array
Conditions: with glucosamine-6-phosphate
Outline: as §1

| Variant | self-cleavage kobs at 2500 uM GlcN6P [s⁻¹] |
| --- | --- |
| AUAAAUGCGCCAGAACUACAGAAAUGUAGUUGACGAGGAGGAGGUUUAUCAAAUUUUCGGCGGAUGCCUCAAAA [A6U G51A C71A] | 5.16e-05 ± 3.4e-05 |
| AUAAAAGCGUCAGAAGUACAGAAAUGUAGUUGACGAGGAGGAGGUUUAUCGAAUUUUCGGCGGAUGCGUCCAAA [C10U C16G C68G] | 2.72e-05 ± 2.5e-05 |
| AUAAAAGCGCAAGAACUACAGAAAUGUAGUUGACGAGAAGGAGGUUUAUCGAAUUUUCGGCGGAUGGCUCCAAA [C11A G38A C67G] | 0.000276 ± 0.00019 |

Variants of: B1
Assay: self-cleavage kobs at 160 uM GlcN6P; higher = faster cleavage; RNA array
Conditions: with glucosamine-6-phosphate
Outline: as §1

| Variant | self-cleavage kobs at 160 uM GlcN6P [s⁻¹] |
| --- | --- |
| AUAAAAGCGUCAGAAGUACAGAAAUGUAGUUGACGAGGAGGAGGUUUAUCGAAUUUUCGGCGGAUGCGUCCAAA [C10U C16G C68G] | 3.41e-05 ± 2.3e-05 |
| AUAAAAGCGCAAGAACUACAGAAAUGUAGUUGACGAGAAGGAGGUUUAUCGAAUUUUCGGCGGAUGGCUCCAAA [C11A G38A C67G] | 2.76e-05 ± 2.1e-05 |

Variants of: B1
Assay: self-cleavage kobs at 10000 uM GlcN6P; higher = faster cleavage; RNA array
Conditions: with glucosamine-6-phosphate
Outline: as §1

| Variant | self-cleavage kobs at 10000 uM GlcN6P [s⁻¹] |
| --- | --- |
| AUAAAAGCGUCAGAACUACAGAAAUGUAGUUAACGAGGAGGAGGUUUAUCGAAUUUUCGGCGGAUGCCUUCAAA [C10U G32A C70U] | 1.66e-05 ± 1.5e-05 |
| AUAAAAGCGCUAGAACUACAGAAAUGUAGUUGACGAGGAGGAGGUUUGUCGAAUUUUCGGCGGAUGCGUCCAAA [C11U A48G C68G] | 0.000714 ± 0.00049 |
